Test results from patent US11141419B1, “Use of iminosugars as prophylactic and therapy against COVID-19 / SARS-CoV-2” (priority 2020, dated 2021).
At least one structure is not confirmed: it was looked up by name or label, or the drawing left a doubt. Some of these results come from one statement about several compounds together.

Key:
SARS-CoV-2 = assay type: cell-based
[1] = test system: Lentiviruses expressing SARS-CoV-2 spike glycoprotein (Wuhan isolate, P.1, B.1.1.7, B.1.351); assay type: cell-based; conditions: 100 μM iminosugar, 24 hrs pre-treatment, luciferase after 48 hrs
COVID-19 = conditions: repurposed drug regimens; cited from earlier work

| SMILES | cell survival (SARS-CoV-2) | viral-induced cell death reversed (SARS-CoV-2) | pseudotyped SARS-CoV-2 viral entry into human 293t-hACE2 cells [1] | effect on hospitalized COVID-19 patients (COVID-19) |
| --- | --- | --- | --- | --- |
| C[C@H]1O[C@H](O[C@H]2[C@H](O)[C@@H](O)[C@@H](O[C@H]3[C@H](O)[C@@H](O)C(O)O[C@@H]3CO)O[C@@H]2CO)[C@H](O)[C@@H](O)[C@@H]1N[C@H]1C=C(CO)[C@@H](O)[C@H](O)[C@H]1O (stereo partly shown) [Acarbose, acarbose] | completely restored | over 50% | significant decrease |  |
| CCC(CC)COC(=O)[C@H](C)N[P@](=O)(OC[C@H]1O[C@@](C#N)(c2ccc3c(N)ncnn23)[C@H](O)[C@@H]1O)Oc1ccccc1 [remdesivir] |  |  |  | little or no effect |
